Hit rate of the full screen: of about 400,000 compounds, about 13,000 (3.2%) were called active. This list was built around the results that the source calls inconclusive (neither active nor inactive); the mix of calls is not that of the screen. Calls follow the shape of the dose curve; as a rule, active = well fitted cell-killing curve with a large enough effect; inconclusive = small, poorly fitted or top-dose-only effect, or effect the other way; inactive = flat fitted curve, though single readings scatter. Potencies beside an inconclusive call are fits to weak or partial responses and may not hold up.
Test: qHTS assay for MDR1-selective chemotherapeutics: Primary screen using the drug-selected MDR subline cells KB-V1; also: nearly all actives have a fitted effect of over 60% in size
Conditions: KB-V1 MDR cells viability, CellTiter-Glo, 72 h; activity change, negative = cytotoxicity: at 46.1 µM (top of the series)
Outline: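 Cytotoxicity via CellTiter-Glo luminescence after 72 h compound exposure at 37 degrees C. Cells: drug-selected KB-V1 line, DMEM phenol-red free plus 10% FBS. Compounds tested at multiple concentrations; normalized data fitted to concentration-effect curves.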
% is scaled to controls: 0 for no effect and ±100 for the full control effect; potency is read from the fitted curve at half-maximal effect.

Question: For `NNC(=O)Nc1cccc(C(F)(F)F)c1`, which Potency is on record?
Answer: The Potency was inconclusive: 29.1 µM [rising, single point].

Question: For `O=C(CN1C(=O)c2ccccc2C1=O)Nc1ccc(S(=O)(=O)N2CCOCC2)cc1`, which Potency is on record?
Answer: The Potency was “inactive”.

Question: For `Cc1ccc(-n2c(C)cc(C(=O)CSc3nncs3)c2C)cc1`, which Potency is on record?
Answer: Its Potency is inconclusive: 2.06 µM [cytotoxic, full curve].

Question: Which Potency does the source give for `O=C(COc1ccc(C(=O)Nc2ccc(Cl)cc2)cc1)NCc1ccccc1` here?
Answer: Its Potency is inconclusive: 7.31 µM [cytotoxic, partial curve].

Question: With `CCn1cc(CN2CCC(C(=O)Nc3ccc(Oc4ccccc4F)cc3)CC2)cn1` as the compound, how does the Potency read?
Answer: Its Potency is inconclusive: 10.3 µM [cytotoxic, partial curve, poor fit].

Question: With `C[C@@H](C(=O)Nc1ccc2c(c1)OCCO2)n1c(=O)[nH]c2ccccc2c1=O` as the compound, how does the Potency read?
Answer: Its Potency is inconclusive: 29.1 µM [rising, single point].

Question: With `CC1CCc2nc3ccccc3c(C(=O)OCC(=O)N(C)C3CCS(=O)(=O)C3)c2C1` (stereo unspecified) as the compound, how does the Potency read?
Answer: The Potency was inconclusive: 20.6 µM [cytotoxic, partial curve, poor fit].

Question: With `Cc1ccc(Oc2ccc(S(=O)(=O)NCC(C)(C)N3CCOCC3)cc2)cc1` as the compound, how does the Potency read?
Answer: The Potency was active: 11.6 µM.

Question: With `Cc1cc(NC(=O)COCc2cc(-c3ccc(F)cc3)on2)ccc1Br` as the compound, how does the Potency read?
Answer: The Potency was “inactive”.

Question: For `CCNc1ccc(-c2nc(-c3ccccn3)no2)cc1[N+](=O)[O-]`, which Potency is on record?
Answer: The Potency was “inactive”.

Question: With `O=C1CC(c2cccs2)c2cc3c(cc2N1)OCO3` (stereo unspecified) as the compound, how does the Potency read?
Answer: Its Potency is inconclusive: 16.4 µM [cytotoxic, single point].

Question: With `CC(C)(C)c1ccc(Cn2c(=O)cnc3ccccc32)cc1` as the compound, how does the Potency read?
Answer: The Potency was inconclusive: 10.3 µM [cytotoxic, partial curve, poor fit].

Question: For `Cc1ccc(NC(=O)COC(=O)COc2cccc3c2OC(C)(C)C3)c(C)c1`, which Potency is on record?
Answer: The Potency was “inactive”.

Question: Which Potency does the source give for `Cc1ccc(CSc2nnc(-c3cccc(S(=O)(=O)N4CCOCC4)c3)n2CC(C)C)cc1` here?
Answer: Its Potency is active: 4.61 µM.

Question: For `CCCCC(=O)Nc1ccc(C(=O)NNC(=O)c2ccco2)cc1`, which Potency is on record?
Answer: The Potency was “inactive”.

Question: For `O=C(CCCCn1c(=O)c2ccccc2n(Cc2ccccc2Cl)c1=O)NCc1ccc2c(c1)OCO2`, which Potency is on record?
Answer: The Potency was inconclusive: 20.6 µM [cytotoxic, single point].

Question: With `CC(C)CCNC(=O)/C=C/c1ccc(Br)cc1` as the compound, how does the Potency read?
Answer: The Potency was inconclusive: 18.4 µM [cytotoxic, single point].

Question: Which Potency does the source give for `COC(=O)c1ccccc1N=Nc1c(N)n[nH]c1N` here?
Answer: The Potency was inconclusive: 29.1 µM [cytotoxic, single point].

Question: For `Cc1ccc(C)c(N2CCN(C(=O)CCCN3C(=S)NC(C)(C)CC3C)CC2)c1` (stereo unspecified), which Potency is on record?
Answer: The Potency was inconclusive: 20.6 µM [cytotoxic, single point].

Question: For `CCOc1ccc(C2=Nn3c(nnc3-c3ccc(OC)cc3)SC2)cc1`, which Potency is on record?
Answer: The Potency was active: 3.26 µM.

Question: Which Potency does the source give for `CN(C)S(=O)(=O)n1cnc(-c2ccccc2)c1-c1ccccc1` here?
Answer: The Potency was inconclusive: 4.11 µM [cytotoxic, partial curve].

Question: For `COC(=O)C1=C(C)NC(C)=C(C(=O)OCC(C)C)C1c1ccccc1[N+](=O)[O-]` (stereo unspecified), which Potency is on record?
Answer: Its Potency is active: 3.66 µM.

Question: Which Potency does the source give for `Cc1cccc(OC(C)C(=O)OCC(=O)N2CCN(c3ccccc3)CC2)c1` (stereo unspecified) here?
Answer: Its Potency is inconclusive: 23.1 µM [rising, single point].

Question: With `O=C(NCCNc1ccc([N+](=O)[O-])cc1Cl)c1ccccc1F` as the compound, how does the Potency read?
Answer: The Potency was inconclusive: 18.4 µM [cytotoxic, single point].

Question: With `CCOc1ccccc1NC(=O)CN(c1ccc(C)cc1)S(=O)(=O)c1c(C)noc1C` as the compound, how does the Potency read?
Answer: Its Potency is inconclusive: 4.61 µM [cytotoxic, full curve].

Question: Which Potency does the source give for `CCOC(=O)N1CCN(C(=O)CSCC(=O)Nc2nc(-c3ccc4c(c3)OCO4)cs2)CC1` here?
Answer: The Potency was inconclusive: 18.4 µM [cytotoxic, single point].

Question: For `CC(c1ccccc1)N1CCN(C(=O)CCl)CC1` (stereo unspecified), which Potency is on record?
Answer: The Potency was inconclusive: 18.4 µM [cytotoxic, single point].

Question: For `Fc1ccc(C2CC(c3ccco3)n3ncnc3N2)cc1` (stereo unspecified), which Potency is on record?
Answer: Its Potency is “inactive”.

Question: With `COc1ccc(NC(=O)C2CC(c3ccc(OC)c(OC)c3)=NO2)cc1OC` (stereo unspecified) as the compound, how does the Potency read?
Answer: Its Potency is “inactive”.

Question: Which activity change, negative = cytotoxicity does the source give for `CN(C)Cc1cn(CCC(=O)O)c2ccccc12` here?
Answer: The activity change, negative = cytotoxicity was inconclusive: 35.1%.

Question: With `COc1ccc(OC)c(CNS(=O)(=O)c2ccc3[nH]c4c(c3c2)CCCCC4)c1` as the compound, how does the Potency read?
Answer: Its Potency is active: 20.6 µM.

Question: With `CC1CN(C(=O)CN2C(=O)c3ccccc3C2=O)CC(C)O1` (stereo unspecified) as the compound, how does the Potency read?
Answer: The Potency was inconclusive: 11.6 µM [rising, partial curve, poor fit].

Question: For `O=C(CCSc1nc2ccccc2s1)N/N=C/c1c(O)ccc2ccccc12`, which Potency is on record?
Answer: Its Potency is “inactive”.

Question: With `CCOCCCNCc1cc(Cl)ccc1OCC` as the compound, how does the Potency read?
Answer: Its Potency is inconclusive: 29.1 µM [rising, single point].

Question: With `CC1CC(C)CN(C(=O)CCNS(=O)(=O)c2cccs2)C1` (stereo unspecified) as the compound, how does the Potency read?
Answer: Its Potency is inconclusive: 11.6 µM [cytotoxic, partial curve, poor fit].

Question: With `CC(C)c1cc(Cn2c3ccccc3c(=O)n2C(C)Cn2cc(-c3ccccc3)nn2)on1` (stereo unspecified) as the compound, how does the Potency read?
Answer: Its Potency is inconclusive: 4.11 µM [cytotoxic, full curve].

Question: For `COc1cccc(NC(=O)c2ccccc2N2C(=O)C3C4C=CC(C5CC45)C3C2=O)c1` (stereo unspecified), which Potency is on record?
Answer: Its Potency is inconclusive: 29.1 µM [cytotoxic, single point].

Question: With `COc1ccc(CN2C(=O)c3cccnc3C2=O)cc1S(=O)(=O)NCc1ccco1` as the compound, how does the Potency read?
Answer: Its Potency is inconclusive: 29.1 µM [rising, single point].

Question: Which Potency does the source give for `Cc1ccc(CNc2ncc(-c3ccccc3)n2C)o1` here?
Answer: The Potency was inconclusive: 29.1 µM [cytotoxic, single point].

Question: For `O=c1c(Cc2ccccc2)c(O)ccn1C1CCCCCCC1`, which Potency is on record?
Answer: The Potency was inconclusive: 13 µM [cytotoxic, partial curve, poor fit].

Question: With `Cc1c(O)ccc(C(=O)CN2C(=O)c3ccccc3C2=O)c1O` as the compound, how does the Potency read?
Answer: Its Potency is inconclusive: 32.6 µM [cytotoxic, partial curve, poor fit].

Question: Which Potency does the source give for `CCn1cnc2c1c(=O)n(CC(=O)N1CCc3ccccc31)c(=O)n2Cc1ccccc1` here?
Answer: The Potency was inconclusive: 2.31 µM [cytotoxic, partial curve, poor fit].

Question: For `COc1ccc(C(C)(NC(C)=O)c2nc(-c3cccc(F)c3)cs2)cc1` (stereo unspecified), which Potency is on record?
Answer: The Potency was “inactive”.

Question: With `O=C(CCl)NCCCN(C(=O)C(Cl)Cl)c1ccc([N+](=O)[O-])cc1` as the compound, how does the Potency read?
Answer: The Potency was inconclusive: 29.1 µM [cytotoxic, single point].

Question: With `O=C1C(Br)=C(c2ccccc2)C(c2ccccc2)=C1c1ccccc1` as the compound, how does the Potency read?
Answer: The Potency was inconclusive: 3.66 µM [cytotoxic, partial curve, poor fit].

Question: For `COC(=O)C(NNc1ccc(F)cc1)(NC(=O)c1ccccc1)C(F)(F)F` (stereo unspecified), which Potency is on record?
Answer: The Potency was active: 18.4 µM.

Question: Which Potency does the source give for `O=C(O)Cc1ccc(NS(=O)(=O)c2c(Cl)cccc2Cl)cc1` here?
Answer: Its Potency is inconclusive: 23.1 µM [rising, partial curve, poor fit].

Question: Which Potency does the source give for `CC(C)N(C(=O)[C@H]1C[C@H](CC(=O)NCc2ccco2)C(=O)N2CCc3c([nH]c4cc(-c5ccco5)ccc34)[C@]12C)C(C)C` here?
Answer: Its Potency is inconclusive: 20.6 µM [cytotoxic, partial curve, poor fit].

Question: For `CCOC(=O)C1=c2s/c(=C\c3ccncc3)c(=O)n2C(N)=C(C(=O)OC)C1c1ccncc1` (stereo unspecified), which Potency is on record?
Answer: The Potency was “inactive”.

Question: Which Potency does the source give for `COc1cccc2cc(C(=O)C3=C(O)C(=O)N(c4cc(C)on4)C3c3cccs3)oc12` (stereo unspecified) here?
Answer: The Potency was inconclusive: 29.1 µM [cytotoxic, single point].

Question: Which Potency does the source give for `CCOC(=O)Cc1cc(=O)[nH]c(/N=C(\N)Nc2ccc(C)c(C)c2)n1` here?
Answer: The Potency was inconclusive: 14.6 µM [cytotoxic, single point].

Question: Which Potency does the source give for `CC(C)NC(=O)C1(C)Cc2c(-c3ccc(N(C)C)cc3)ccnc2O1` (stereo unspecified) here?
Answer: The Potency was inconclusive: 14.6 µM [cytotoxic, partial curve, poor fit].

Question: For `Cc1ccc(C(=O)OC(C)C(=O)Nc2ccc(S(N)(=O)=O)cc2)cc1S(=O)(=O)N1CCOCC1` (stereo unspecified), which Potency is on record?
Answer: Its Potency is inconclusive: 29.1 µM [rising, single point].

Question: For `CCOc1ccc(NS(=O)(=O)c2ccc(NC(=O)c3ccccc3C(=O)O)cc2)cc1`, which Potency is on record?
Answer: Its Potency is inconclusive: 23.1 µM [rising, single point].

Question: For `COc1ccc(C(=O)N/C(=C/c2cccnc2)C(=O)N2CCCCCC2)cc1OC`, which Potency is on record?
Answer: Its Potency is inconclusive: 20.6 µM [rising, partial curve].

Question: With `CCc1ccc(N2C=C(C(=O)OC)C(c3ccccc3F)C(C#N)=C2N)cc1` (stereo unspecified) as the compound, how does the Potency read?
Answer: The Potency was inconclusive: 13 µM [cytotoxic, partial curve].

Question: With `CCN(CC(=O)NCc1ccc(Cl)cc1)C(=O)CSc1ccc(F)cc1` as the compound, how does the Potency read?
Answer: The Potency was inconclusive: 23.1 µM [cytotoxic, single point].

Question: For `CC1(CCc2ccccc2)NC(=O)N(CC(=O)Nc2c(F)cccc2F)C1=O` (stereo unspecified), which Potency is on record?
Answer: Its Potency is inconclusive: 29.1 µM [cytotoxic, single point].

Question: For `COc1c2ccoc2cc2oc(=O)ccc12`, which Potency is on record?
Answer: Its Potency is active: 25.9 µM.

Question: For `COc1cc(C(=O)NCCNc2nc3c(C)cccc3cc2C#N)cc(OC)c1OC`, which Potency is on record?
Answer: Its Potency is inconclusive: 7.31 µM [cytotoxic, partial curve, poor fit].

Question: With `CCCc1c(-c2cccc(Br)c2)ncn1Cc1cccc(-c2ccccc2)c1` as the compound, how does the Potency read?
Answer: The Potency was active: 16.4 µM.

Question: With `C/C=C/c1ccc(OCCNCc2ccccc2)c(OC)c1` as the compound, how does the Potency read?
Answer: Its Potency is “inactive”.

Question: With `Cc1ccc(C(=O)N(CC(=O)NC2CCCC2)c2ccc(F)cc2)s1` as the compound, how does the Potency read?
Answer: The Potency was inconclusive: 3.66 µM [cytotoxic, full curve].

Question: With `Cc1cccc(C(=O)Oc2ccc(/C=N/NC(=O)c3ccccc3O)cc2)c1` as the compound, how does the Potency read?
Answer: The Potency was inconclusive: 25.9 µM [cytotoxic, single point].

Question: Which Potency does the source give for `CC(C)(C)c1nc(SCC(=O)NCc2cccs2)c2ccccc2n1` here?
Answer: The Potency was inconclusive: 29.1 µM [rising, single point].

Question: With `CCc1nc2c(OCc3ccc(C(F)(F)F)cc3)cccn2c1N(C)C(=O)c1ccc(OC)cc1` as the compound, how does the Potency read?
Answer: Its Potency is inconclusive: 29.1 µM [cytotoxic, single point].

Source: PubChem BioAssay AID1347076 (National Center for Advancing Translational Sciences (NCATS), 2019)
